# According to PubChem BioAssay AID2685 (National Center for Advancing Translational Sciences (NCATS), 2010):
# Some of the results follow. Further columns of the screen follow, without active or inactive calls. The list favours compounds with an active or inconclusive main result. The note in brackets gives the kind of curve behind each potency; many fits are weak.
# Experiment: qHTS Assay for Lipid Storage Modulators in Drosophila S3 Cells;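 for cell number change: cells counted by Cell Tracker Red CMTPX staining in the red channel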
# Details: BODIPY lipid droplet fluorescence, 18-24 h; for cell number change: measured here: cell count max response, cells fed with added oleic acid
# Procedure, shortened: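 Laser-scanning cytometry quantifies lipid droplet accumulation (500–530 nm total intensity; droplet/cell object ratio) in oleic acid-fed (400 uM added) Drosophila S3 cells treated with a concentration series. 20 uM Triacsin C defined 100% inhibition.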
# [1] = measured here: lipid fluorescence (Fed channel) AC50, cells fed with added oleic acid
# [2] = measured here: cell number channel AC50, cells fed with added oleic acid
Structure (SMILES),cell number change [%],AC50 [1],AC50 [2]
CCC1(c2ccc(F)cc2)NC(=O)N(CC(=O)Nc2ccc(C(N)=O)cc2)C1=O (stereo not given),1.61,"23.1 µM [rising, partial curve, poor fit]",
O=C(O)Cc1ccc2sc(-c3ccccc3)nc2c1,,"23.1 µM [falling, partial curve, poor fit]",
COC(=O)CSc1nc(C)cc(C)n1,28.4,"8.2 µM [rising, single point]",
Cc1cc(OCC(=O)Nc2cc(S(=O)(=O)N3CCOCC3)ccc2N2CCCC2)ccc1C(C)C,-7,,
Cc1onc(-c2ccccc2Cl)c1C(=O)N(C)Cc1ccccc1,-1.42,,"1.64 µM [rising, partial curve, poor fit]"
CCc1nn(CC(=O)NCCCN2CCN(C)CC2)c(=O)c2cc3occc3n12,-11.6,"29.1 µM [rising, single point]",
Cc1cccc(-n2c(=O)[nH]c3c(C(N)=O)nc(-c4ccccc4Cl)nc32)c1,-115,"29.1 µM [falling, single point]","29.1 µM [falling, partial curve]"
CCOC(=O)C1=C(O)C(Nc2nc3ccccc3s2)(C(F)(F)F)N=C1C (stereo not given),-18.3,,
O=C(CCS(=O)(=O)c1ccccc1)Nc1ccc(-c2nc3ccccc3s2)cc1,-26.5,"7.31 µM [falling, partial curve]",
COc1ccc(S(=O)(=O)NCC(c2ccc3c(c2)OCO3)N2CCN(c3ccccc3)CC2)cc1 (stereo not given),2.38,"29.1 µM [falling, single point]",
O=C(NNC(=O)c1cccs1)c1cccc(F)c1,16.7,,"2.06 µM [rising, partial curve, poor fit]"
CC(=O)c1ccc(OCCCC(=O)NCCc2ccc(C(F)(F)F)cc2)cc1,,"25.9 µM [rising, partial curve, poor fit]","0.651 µM [rising, single point]"
CCOC(=O)CSc1nnc(CNc2cccc(Cl)c2)n1-c1ccccc1,-21.6,"1.64 µM [falling, full curve, poor fit]",
CCOc1ccccc1N(CC(=O)Nc1c(C)n(C)n(-c2ccccc2)c1=O)S(=O)(=O)c1ccccc1,28.4,"29.1 µM [rising, single point]",
CCOc1ccc(/C=C2\CCc3ccccc3C2=O)cc1,2.07,,
COc1ccc2nc(NNC(=O)C3COc4ccccc4O3)sc2c1 (stereo not given),6.59,"3.66 µM [rising, partial curve]",
Cc1nc(NCC2CCCO2)c2nnn(Cc3ccccc3)c2n1 (stereo not given),-40.6,"7.31 µM [falling, single point]",
CC(C)[C@H](NS(=O)(=O)c1ccc2c(c1)OCCO2)C(=O)OCC(=O)Nc1cccc(Cl)c1Cl,24.2,"0.517 µM [rising, full curve]","4.61 µM [rising, full curve, poor fit]"
O=C(NCCC1=CCCCC1)C1CCC(=O)N(Cc2cccc(C(F)(F)F)c2)C1 (stereo not given),-3.14,"0.206 µM [falling, full curve, poor fit]",
COc1cc(C(=S)N2CCCC2)ccc1OS(=O)(=O)c1ccc(NC(C)=O)cc1,-1.97,,"6.51 µM [falling, single point]"

Structure (SMILES),cell number change [%],AC50 [1],AC50 [2]
O=C(N/N=C/C=C/c1ccco1)c1cccc([N+](=O)[O-])c1,,"0.58 µM [falling, full curve, poor fit]",
Cn1cccc1C(=O)NC(=O)COC(=O)CNC(=O)c1ccc(Cl)cc1Cl,-30.2,"23.1 µM [falling, partial curve, poor fit]","6.51 µM [falling, partial curve, poor fit]"
COc1ccc(CCC(=O)NNC(=S)Nc2cccc(C(C)=O)c2)cc1,-7.23,,
COC(=O)Cc1ccc(NC(=S)NC2CC2)cc1,0.903,"0.731 µM [falling, full curve]",
COc1cccc(C(=O)NNC(=O)C2CCCO2)c1 (stereo not given),16.7,"2.91 µM [rising, partial curve]",
COc1cc(C(=O)NC(CCSC)C(=O)OCc2cc([N+](=O)[O-])cc3c2OCOC3)cc(OC)c1OC (stereo not given),33.6,"1.64 µM [rising, partial curve, poor fit]","1.64 µM [rising, full curve, poor fit]"
CC(C)(C)Cc1nnc(NC(=O)c2cc(-c3ccccc3)nc3ccccc23)s1,42.8,,"0.731 µM [rising, full curve]"
Cc1ccccc1CS(=O)(=O)Cc1ccc(C(=O)N2CCOCC2)o1,9.02,"2.59 µM [falling, full curve, poor fit]",
CCCCOC(=O)Nc1ccc(S(=O)(=O)Nc2ncccn2)cc1,-8.6,,
COc1cc(OC)cc(C(=O)N[C@@H](CCSC)c2nc3ccccc3[nH]2)c1,-0.311,"1.3 µM [rising, partial curve, poor fit]","0.82 µM [rising, partial curve]"
CC(CC1CC(C)(C)OC1=O)C(=O)Nc1nncs1 (stereo not given),-2.38,"1.64 µM [falling, full curve]",
N#C/C(=C(/O)COc1ccc(Br)cc1)c1nnc2n1CCCCC2,-24.8,"2.06 µM [falling, full curve]","3.26 µM [falling, full curve, poor fit]"
c1ccc2c(c1)CCN2CCN1CCc2ccccc21,,"4.61 µM [falling, single point]",
OC(c1ccccc1)c1cccnc1 (stereo not given),12.2,"14.6 µM [rising, partial curve]",
O=C(/C=C/c1ccc(F)cc1)NCCCN1CCN(CCCNC(=O)/C=C/c2ccc(F)cc2)CC1,-46.8,"0.00461 µM [falling, full curve, poor fit]","0.461 µM [falling, full curve, poor fit]"
CCC(Oc1ccccc1)C(=O)Nc1ccccn1 (stereo not given),-6.89,,"0.058 µM [falling, partial curve, poor fit]"
COCCn1c(C)cc(/C=C(\C#N)C(=O)OCC(=O)Nc2ccc(S(N)(=O)=O)cc2)c1C,17,,
Nc1ccccc1C(=O)N=Nc1[nH]c(N)c2ccccc12,-1.25,,
CCC(C)c1ccc(S(=O)(=O)N2CCN(C(=O)COc3ccc4c(C)cc(=O)oc4c3)CC2)cc1 (stereo not given),121,"5.17 µM [rising, full curve]","29.1 µM [rising, single point]"
Cc1ccc(C(=O)Nc2sc(C(=O)N(C)C)c(C)c2C#N)cc1,33.3,"3.26 µM [falling, full curve, poor fit]","18.4 µM [rising, single point]"

Structure (SMILES),cell number change [%],AC50 [1],AC50 [2]
CC(Oc1ccc(Br)cc1)C(=O)NCc1ccccn1 (stereo not given),91.4,,"20.6 µM [rising, partial curve]"
Cc1csc(NC(=O)c2ccc(COc3ccccc3)o2)n1,20.4,"0.13 µM [falling, full curve]",
Cc1cc(C(=O)CN2C(=O)NC3(CCC(C)CC3)C2=O)c(C)n1C (stereo not given),2.62,"0.259 µM [falling, partial curve]",
Cc1cc(C)c2c3c(sc2n1)C(c1ccccc1)C(C#N)=C(N)O3 (stereo not given),56.9,,
NC12CC3CC(C1)CC(O)(C3)C2,-49.6,"14.6 µM [falling, partial curve]","4.11 µM [falling, full curve]"
COc1ccccc1N1CCN(c2nc3ccccc3nc2C(C#N)C(=O)OC(C)C)CC1 (stereo not given),-11.1,"1.84 µM [rising, partial curve]","1.64 µM [rising, partial curve]"
CCCn1c2ccccc2c2cnn(CC(=O)NC3CCCC(C)C3C)c(=O)c21 (stereo not given),,,"3.66 µM [rising, single point]"
CCN(CC)C(=O)c1cc2c(=O)n3cccc(C)c3nc2n1C,21.7,"20.6 µM [rising, single point]",
COc1cc2c(cc1OC)CN(c1ccc([N+](=O)[O-])cc1C#N)CC2,7.32,"5.8 µM [rising, full curve, poor fit]",
Cc1cc2ncc(S(C)(=O)=O)c(N)n2n1,30.8,,"20.6 µM [rising, partial curve, poor fit]"
O=C(CSc1nnc(Cc2cc(=O)[nH]c(=O)[nH]2)n1-c1ccccc1)N1CCCCC1,9.62,,
O=C(CNCc1cccc(Cl)c1)N1CCc2ccccc2C1,145,"29.1 µM [rising, single point]","16.4 µM [rising, partial curve]"
Cc1ccc(Nc2nc3nonc3[nH]c2=O)cc1C,3.74,"29.1 µM [falling, single point]",
Cc1ccccc1C(=O)c1cccn1CC(=O)NCc1ccc2c(c1)OCO2,21.8,"6.51 µM [falling, single point]",
O=C(COC(=O)c1ccc(S(=O)(=O)NCc2ccco2)cc1)Nc1ccc(Cl)cn1,89.2,,"23.1 µM [rising, partial curve]"
COc1ccc(S(=O)(=O)Nc2cccc(S(=O)(=O)N3CCCC3)c2)cc1OC,100,,"18.4 µM [rising, single point]"
CCOc1ccc(-n2cc(C(=O)NCCOC)c3cc(OC)c(OC)cc3c2=O)cc1,31.4,,"20.6 µM [rising, single point]"
CCN(Cc1ccncc1)C(=O)c1ccccc1NS(=O)(=O)c1ccc(Br)cc1,-3.52,"4.11 µM [rising, full curve, poor fit]",

# An excerpt from above in order of SMILES length, high to low.
Structure (SMILES),cell number change [%],AC50 [1],AC50 [2]
O=C(CSc1nnc(Cc2cc(=O)[nH]c(=O)[nH]2)n1-c1ccccc1)N1CCCCC1,9.62,,
CCN(CC)C(=O)c1cc2c(=O)n3cccc(C)c3nc2n1C,21.7,"20.6 µM [rising, single point]",
NC12CC3CC(C1)CC(O)(C3)C2,-49.6,"14.6 µM [falling, partial curve]","4.11 µM [falling, full curve]"
